Measured values taken from the supplement of paper PMC11006884.
This list holds what a sample rich in targets with a hit left over. The data scatter; read single values as rough. The entries are a selection whose mix differs from that of the whole data set.

compound: COC(=O)/C=C/c1ccccc1 [methyl cinnamate]; assay: log2 ratio of iodoacetamide-alkyne labeling of the cysteine site, DMSO over compound (competition); higher = stronger covalent engagement of the cysteine by the compound, active = 1 or more; details: 500 µM; treatment time 1 h; system: HEK293T cell lysate
In short: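 Three replicates, each with duplicate channels, were prepared from HEK293T lysate (2 mg/mL) treated with vehicle or electrophile at 500 µM for 1 h at ambient temperature. Iodoacetamide alkyne was then applied for 1 h, and samples were clicked to sCIP-TMT reagents, pooled, trypsin-digested overnight at 37 °C, enriched on streptavidin, acid-eluted and analysed on Orbitrap Eclipse LC-MS/MS with FAIMS, with FragPipe quantification. The log2 competition ratio per cysteine is the mean control-channel divided by the mean compound-channel reporter intensity. Cysteines quantified in only one replicate were left out.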

log2 ratio of iodoacetamide-alkyne labeling, inactive:
SOS1 C926 (UniProt Q07889) 0.0176
CEBPZ C374 (UniProt Q03701) 0.0682
ATM C12 (UniProt Q13315) 0.0264
UniProt Q13242_C80 -0.00719
GFPT1 C264 (UniProt Q06210) 0.0392
AP1B1 C129 (UniProt Q10567) 0.261
CEBPZ C411 (UniProt Q03701) 0.154
TARBP1 C483 (UniProt Q13395) -0.0748
GOLGA2 C794 (UniProt Q08379) 0.276
TRIM28 C68 (UniProt Q13263) -0.0258
TP53BP1 C896 (UniProt Q12888) -0.0806
TRIM28 C124 (UniProt Q13263) 0.0665
NSUN2 C758 (UniProt Q08J23) 0.183
UniProt Q03164_C990 0.25
CBX3 C69 (UniProt Q13185) 0.099
RING1 C72 (UniProt Q06587) 0.124
UniProt Q03188_C612 0.266
DST C7524 (UniProt Q03001) 0.31
AHNAK C1833 (UniProt Q09666) 0.173
GABPA C338 (UniProt Q06546) 0.257
SF3A3 C103 (UniProt Q12874) 0.145
PTPN11 C567 (UniProt Q06124) 0.366
UniProt Q13131_C238 0.0564
DHX9 C242 (UniProt Q08211) -0.0444
TJP1 C1727 (UniProt Q07157) -0.0195
MTA1 C229 (UniProt Q13330) 0.111
SCAP C875 (UniProt Q12770) 0.269
VAC14 C719 (UniProt Q08AM6) -0.0396
PPAT C100 (UniProt Q06203) 0.216
TARDBP C244 (UniProt Q13148) 0.202
EP300 C1164 (UniProt Q09472) 0.124
AKAP12 C684 (UniProt Q02952) 0.0938
NCBP1 C616 (UniProt Q09161) -0.107
TARBP1 C1556 (UniProt Q13395) 0.158
ACACA C1297 (UniProt Q13085) 0.0974
GTF3C1 C2089 (UniProt Q12789) 0.271
PRDX1 C83 (UniProt Q06830) 0.0489

Pulled one by one from the entries so far, 2 records:
log2 ratio of iodoacetamide-alkyne labeling, inactive:
DHX9 C242 (UniProt Q08211) -0.0444
UniProt Q13131_C238 0.0564
